From publication PMC5039214 come the findings set out here.

The target in the experiment is Skint-1 DV (membrane distal immunoglobulin (Ig) domain of Skint-1), residues S24 to T141 (mouse) (UniProt A7TZE6). Put plainly: SEC; Superdex-200 (GE Healthcare) pre-equilibrated with 50 mM NaCl, 20 mM MES pH 6.5; refolded protein, elution profile; both purified. For orientation: SEC sorts molecules by how far they enter the pores of the column.

These are yes or no findings as the source states them, for the method shown.

B1: Skint-1 DV (membrane distal immunoglobulin (Ig) domain of Skint-1), residues S24 to T141 (domain or fragment, UniProt A7TZE6 24-141)
chain: SSEPFIVNGLEGPVLASLGGNLELSCQLSPPQQAQHMEIRWFRNLYTEPVHLYRDGKDMFGEIISKYVERTELLKDGIGEGKVTLRIFNVTVDDDGSYHCVFKDGDFYEEHITEVKIT
Consider B1, for which the binding entry is listed as “no binding”.
